# Test results: the supplement of paper PMC4604168 (melanoma cell lines)
# Some of the results follow. Repeats are few or missing, and single values can be far off.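 Cells were imaged in 1,536-well plates, and nuclei stained with an antibody against cleaved PARP were counted against all DNA-stained nuclei to give the apoptosis fraction. Screening doses were chosen to leave most cells alive, and resting and induced cleaved-PARP levels differ strongly between cell lines.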
# Tests used:
# Experiment in all cases: cleaved PARP positive nuclei fraction relative to DMSO control; melanoma cells; higher = more apoptosis
# Details in all cases: library dose: low library concentration; 72 h
# [1] = system: CBRC034 (line from a melanoma biopsy)
# [2] = system: COLO792
# [3] = system: COLO800
# [4] = system: COLO829
# [5] = system: G361
# [6] = system: IPC-298
# [7] = system: IST-MEL1
# [8] = system: LB2518-MEL
# [9] = system: LOXIMVI
# [10] = system: MEL-HO
SMILES,cleaved PARP positive nuclei fraction [1],cleaved PARP positive nuclei fraction [2],cleaved PARP positive nuclei fraction [3],cleaved PARP positive nuclei fraction [4],cleaved PARP positive nuclei fraction [5],cleaved PARP positive nuclei fraction [6],cleaved PARP positive nuclei fraction [7],cleaved PARP positive nuclei fraction [8],cleaved PARP positive nuclei fraction [9],cleaved PARP positive nuclei fraction [10]
"Cn1cnc2c(F)c(Nc3ccc(Br)cc3Cl)c(C(=O)NOCCO)cc21 [selumetinib] + Cc1cc(Nc2cc(N3CCN(C)CC3)nc(/C=C/c3ccccc3)n2)n[nH]1 [ENMD2076] (first compound 0.015 µM, partner dose 0.04 µM)",97.5%,149%,47.5%,112%,67.4%,265%,29.1%,87.1%,111%,176%
"CCCCCCCCc1ccc(CCC(N)(CO)CO)cc1 [fingolimod] + CN(c1ncccc1CNc1nc(Nc2ccc3c(c2)CC(=O)N3)ncc1C(F)(F)F)S(C)(=O)=O [PF562271] (first compound 2 µM, partner dose 0.08 µM)",30.3%,126%,152%,90.4%,90%,171%,59.8%,–,208%,208%
"Cn1cnc2c(F)c(Nc3ccc(Br)cc3Cl)c(C(=O)NOCCO)cc21 [selumetinib] + C=C(c1ccc(C(=O)O)cc1)c1cc2c(cc1C)C(C)(C)CCC2(C)C [Bexarotene] (first compound 0.015 µM, partner dose 2 µM)",341%,119%,60.2%,68.4%,156%,141%,46.2%,–,66.4%,92.5%
"CC1(C)CCC(c2ccc(Cl)cc2)=C(CN2CCN(c3ccc(C(=O)NS(=O)(=O)c4ccc(N[C@H](CCN5CCOCC5)CSc5ccccc5)c(S(=O)(=O)C(F)(F)F)c4)cc3)CC2)C1 + Cn1cnc2c(F)c(Nc3ccc(Br)cc3Cl)c(C(=O)NOCCO)cc21 [selumetinib] (first compound 0.4 µM, partner dose 0.015 µM)",567%,298%,134%,105%,237%,107%,106%,–,106%,117%
"CC(=O)O[C@@]12CO[C@@H]1C[C@H](O)[C@@]1(C)C(=O)[C@H](O)C3=C(C)[C@@H](OC(=O)[C@H](O)[C@@H](NC(=O)OC(C)(C)C)c4ccccc4)C[C@@](O)([C@@H](OC(=O)c4ccccc4)[C@H]21)C3(C)C [Docetaxel] + CO[C@H]1C[C@@H]2CC[C@@H](C)[C@@](O)(O2)C(=O)C(=O)N2CCCC[C@H]2C(=O)O[C@H]([C@H](C)C[C@@H]2CC[C@@H](OCCO)[C@H](OC)C2)CC(=O)[C@H](C)/C=C(\C)[C@@H](O)[C@@H](OC)C(=O)[C@H](C)C[C@H](C)/C=C/C=C/C=C/1C [everolimus] (first compound 0.0001 µM, partner dose 0.02 µM)",107%,584%,91.9%,419%,774%,283%,103%,80.4%,149%,355%
"NC1(c2ccc(-c3nc4ccn5c(=O)[nH]nc5c4cc3-c3ccccc3)cc2)CCC1 + Nc1nc(F)nc2c1ncn2[C@@H]1O[C@H](CO)[C@@H](O)[C@@H]1O [fludarabine] (first compound 0.4 µM, partner dose 0.2 µM)",172%,147%,73.8%,197%,141%,190%,98.7%,–,172%,274%
"CC1(C)CCC(c2ccc(Cl)cc2)=C(CN2CCN(c3ccc(C(=O)NS(=O)(=O)c4ccc(N[C@H](CCN5CCOCC5)CSc5ccccc5)c(S(=O)(=O)C(F)(F)F)c4)cc3)CC2)C1 + C=CCNC1=C2C[C@@H](C)C[C@H](OC)[C@H](O)[C@@H](C)/C=C(\C)[C@H](OC(N)=O)[C@@H](OC)/C=C\C=C(/C)C(=O)NC(=CC1=O)C2=O [Tanespimycin] (first compound 0.4 µM, partner dose 0.002 µM)",46%,360%,181%,124%,143%,417%,59%,–,241%,82.6%
"CN(c1ncccc1CNc1nc(Nc2ccc3c(c2)CC(=O)N3)ncc1C(F)(F)F)S(C)(=O)=O + CC(=O)c1c(C)c2cnc(Nc3ccc(N4CCNCC4)cn3)nc2n(C2CCCC2)c1=O [palbociclib] (first compound 0.08 µM, partner dose 0.04 µM)",66.9%,17.3%,64.9%,133%,67.7%,188%,135%,–,200%,145%
"Cn1cnc2c(F)c(Nc3ccc(Br)cc3Cl)c(C(=O)NOCCO)cc21 [selumetinib] + Nc1cccc2c1CN(C1CCC(=O)NC1=O)C2=O [lenalidomide] (first compound 0.015 µM, partner dose 1 µM)",136%,172%,92.2%,72.9%,143%,128%,68.6%,172%,167%,177%
"Cn1cnc2c(F)c(Nc3ccc(Br)cc3Cl)c(C(=O)NOCCO)cc21 [selumetinib] + CN(c1ncccc1CNc1nc(Nc2ccc3c(c2)CC(=O)N3)ncc1C(F)(F)F)S(C)(=O)=O [PF562271] (first compound 0.015 µM, partner dose 0.08 µM)",41.9%,106%,91.1%,101%,202%,92%,34.9%,485%,98.4%,86.7%
"C[C@@H](N)c1ccc(C(=O)Nc2ccnc3[nH]ccc23)cc1 + C[C@@H](Oc1cc(-c2cnn(C3CCNCC3)c2)cnc1N)c1c(Cl)ccc(F)c1Cl [Crizotinib] (first compound 0.4 µM, partner dose 0.2 µM)",307%,190%,119%,98%,98.4%,169%,86.8%,–,148%,53%
"Cn1sc(=O)n(Cc2ccccc2)c1=O + C=C(c1ccc(C(=O)O)cc1)c1cc2c(cc1C)C(C)(C)CCC2(C)C [Bexarotene] (first compound 0.4 µM, partner dose 2 µM)",46.2%,68.6%,110%,94.1%,179%,189%,63.7%,–,127%,97.6%
"Cn1sc(=O)n(Cc2ccccc2)c1=O + C=CCNC1=C2C[C@@H](C)C[C@H](OC)[C@H](O)[C@@H](C)/C=C(\C)[C@H](OC(N)=O)[C@@H](OC)/C=C\C=C(/C)C(=O)NC(=CC1=O)C2=O [Tanespimycin] (first compound 0.4 µM, partner dose 0.002 µM)",89%,97.9%,76.2%,69.5%,97.5%,89.4%,127%,–,165%,79%
"C[C@@H](N)c1ccc(C(=O)Nc2ccnc3[nH]ccc23)cc1 + CCN(CC)CCNC(=O)c1c(C)[nH]c(/C=C2\C(=O)Nc3ccc(F)cc32)c1C [sunitinib] (first compound 0.4 µM, partner dose 0.4 µM)",155%,119%,185%,72.4%,226%,167%,94.3%,–,142%,99.7%
"CC1(C)CCC(c2ccc(Cl)cc2)=C(CN2CCN(c3ccc(C(=O)NS(=O)(=O)c4ccc(N[C@H](CCN5CCOCC5)CSc5ccccc5)c(S(=O)(=O)C(F)(F)F)c4)cc3)CC2)C1 + Cc1ccc(Nc2nccc(N(C)c3ccc4c(C)n(C)nc4c3)n2)cc1S(N)(=O)=O [Pazopanib] (first compound 0.4 µM, partner dose 0.4 µM)",106%,597%,129%,78%,252%,87.1%,87.9%,263%,227%,1190%
"NC(=O)c1ccc(N(C(N)=O)c2c(F)cccc2F)nc1-c1ccc(F)cc1F + CS(=O)(=O)c1ccc(C(=O)Nc2ccc(Cl)c(-c3ccccn3)c2)c(Cl)c1 [vismodegib] (first compound 0.4 µM, partner dose 1 µM)",46.5%,132%,79.5%,49.8%,82.1%,81.1%,56.9%,–,93.2%,47.4%
"Cn1cnc2c(F)c(Nc3ccc(Br)cc3Cl)c(C(=O)NOCCO)cc21 [selumetinib] + C=CCNC1=C2C[C@@H](C)C[C@H](OC)[C@H](O)[C@@H](C)/C=C(\C)[C@H](OC(N)=O)[C@@H](OC)/C=C\C=C(/C)C(=O)NC(=CC1=O)C2=O [Tanespimycin] (first compound 0.015 µM, partner dose 0.002 µM)",118%,60.4%,50.3%,103%,271%,241%,72.6%,–,115%,58%
"CC(=O)O[C@@]12CO[C@@H]1C[C@H](O)[C@@]1(C)C(=O)[C@H](O)C3=C(C)[C@@H](OC(=O)[C@H](O)[C@@H](NC(=O)OC(C)(C)C)c4ccccc4)C[C@@](O)([C@@H](OC(=O)c4ccccc4)[C@H]21)C3(C)C [Docetaxel] + CC(C)C[C@H](NC(=O)[C@H](Cc1ccccc1)NC(=O)c1cnccn1)B(O)O [Bortezomib] (first compound 0.0001 µM, partner dose 0.001 µM)",91.3%,333%,590%,229%,1000%,842%,227%,–,88.2%,61.4%
"Cn1cnc2c(F)c(Nc3ccc(Br)cc3Cl)c(C(=O)NOCCO)cc21 [selumetinib] + O=C(O)c1ccc2c(c1)nc(Nc1cccc(Cl)c1)c1ccncc12 [CX4945] (first compound 0.015 µM, partner dose 0.4 µM)",98.6%,103%,143%,102%,144%,277%,32.1%,–,160%,170%
"CC(=O)O[C@@]12CO[C@@H]1C[C@H](O)[C@@]1(C)C(=O)[C@H](O)C3=C(C)[C@@H](OC(=O)[C@H](O)[C@@H](NC(=O)OC(C)(C)C)c4ccccc4)C[C@@](O)([C@@H](OC(=O)c4ccccc4)[C@H]21)C3(C)C [Docetaxel] + O=C(O)c1ccc2c(c1)nc(Nc1cccc(Cl)c1)c1ccncc12 [CX4945] (first compound 0.0001 µM, partner dose 0.4 µM)",239%,545%,356%,306%,375%,262%,74.7%,–,384%,194%

# Record cards (already shown). Order of values: cleaved PARP positive nuclei fraction [1] | cleaved PARP positive nuclei fraction [2] | cleaved PARP positive nuclei fraction [3] | cleaved PARP positive nuclei fraction [4] | cleaved PARP positive nuclei fraction [5] | cleaved PARP positive nuclei fraction [6] | cleaved PARP positive nuclei fraction [7] | cleaved PARP positive nuclei fraction [8] | cleaved PARP positive nuclei fraction [9] | cleaved PARP positive nuclei fraction [10]
# NC1(c2ccc(-c3nc4ccn5c(=O)[nH]nc5c4cc3-c3ccccc3)cc2)CCC1 + Nc1nc(F)nc2c1ncn2[C@@H]1O[C@H](CO)[C@@H](O)[C@@H]1O [fludarabine] (first compound 0.4 µM, partner dose 0.2 µM) in the list: 172% | 147% | 73.8% | 197% | 141% | 190% | 98.7% | – | 172% | 274%
# NC(=O)c1ccc(N(C(N)=O)c2c(F)cccc2F)nc1-c1ccc(F)cc1F + CS(=O)(=O)c1ccc(C(=O)Nc2ccc(Cl)c(-c3ccccn3)c2)c(Cl)c1 [vismodegib] (first compound 0.4 µM, partner dose 1 µM) in the list: 46.5% | 132% | 79.5% | 49.8% | 82.1% | 81.1% | 56.9% | – | 93.2% | 47.4%
